The list shows only some results of the screen, not a fair sample: it is rich in T/C values a quarter to a half above the control, in often repeated tests (any T/C) and in doses without a T/C. Other doses and runs of a compound stand elsewhere. T/C: endpoint of the treated group in % of that of the vehicle group. Some entries give survivors of the animals treated and no T/C: the source holds a T/C of zero for them, seemingly a mark for toxic or unscored doses. Some survivor counts are full or nearly so, which does not show that the dose was tolerated: the source hardly ever lists a survival T/C far under the control, and the zero likely stands for such cases as well. Survivors were counted at the toxicity check, usually on the fifth day, unless a day is given; later deaths do not show. Schedule codes are those of the source, taken here to give the interval after Q, in days (D) or hours (H), and the number of doses after X. Some schedules carry Z or #; the key to these is not given. Some structures stand for samples that the source files as different forms (salt, stereo form or complex); doses refer to the form tested. Some entries hold several experiments; the results are listed from low to high. Where survival is the endpoint, the PubChem record calls one and a half times the control and up active, and a quarter to a half above the control has no call in these data; cut-offs in other NCI protocols can differ. Some T/C values carry the count of animals alive at the toxicity check (mostly the fifth day); where none is given, no animal had died by that day.
Tested on: L1210 leukemia ip in BDF1 mice, survival T/C
Experiment: NCI In Vivo Anticancer Drug Screen. Data for tumor model L1210 Leukemia (intraperitoneal) in B6D2F1 (BDF1) mice
Conditions: T/C endpoint: mean survival time, higher T/C = longer survival
[1] = dose: 400.0 mg/kg/injection, schedule: Q01DX009 (ip), vehicle: saline with Tween-80
[2] = dose: 400.0 mg/kg/injection, schedule: Q04DX003 (ip), vehicle: saline
[3] = dose: 400.0 mg/kg/injection, schedule: Q01DX001 (ip), vehicle: saline with Tween-80
[4] = dose: 400.0 mg/kg/injection, schedule: Q01DX001 (ip), vehicle: saline
[5] = dose: 100.0 mg/kg/injection, schedule: Q01DX001 (ip), vehicle: saline
[6] = dose: 200.0 mg/kg/injection, schedule: Q01DX001 (ip), vehicle: saline
[7] = dose: 200.0 mg/kg/injection, schedule: Q04DX003 (ip), vehicle: saline with Tween-80
[8] = dose: 400.0 mg/kg/injection, schedule: Q04DX003 (ip), vehicle: saline with Tween-80
[9] = dose: 100.0 mg/kg/injection, schedule: Q04DX003 (ip), vehicle: saline with Tween-80

CC(C)=C(c1ccc(C(C)(C)C)cc1)c1ccc(C(C)(C)C)cc1
survivor count [1]: 6 of 6

Cc1ccc(Br)c([N+](=O)[O-])c1
T/C (dose: 50.0 mg/kg/injection, schedule: Q01DX001 (ip), vehicle: carboxymethylcellulose (CMC)): 125 % of control

CN1COC(OC(C)(C)C)C(C)(C)C1 (centres undefined)
survivor count (dose: 200.0 mg/kg/injection, schedule: Q01DX001 (ip), vehicle: saline sonified): 6 of 6

CC1C[N-]CC(C)C1.CC1C[N-]CC(C)C1.[Cl][Pt+2]([Cl])([Cl])[Cl] (centres undefined)
survivor count (dose: 50.0 mg/kg/injection, schedule: Q01DX009 (ip), vehicle: saline): 2 of 6 | survivor count (dose: 100.0 mg/kg/injection, schedule: Q01DX009 (ip), vehicle: saline): 1 of 6 | survivor count (dose: 200.0 mg/kg/injection, schedule: Q04DX003 (ip), vehicle: saline): 2 of 6 | survivor count [2]: 0 of 6

CC(C)(C)NC(=O)C(Cl)Cl
survivor count [3]: 3 of 6

COCC/C(COC)=N/N
survivor count [4]: 0 of 4

CCN(CC)CCC(=O)c1cccs1
survivor count (dose: 400.0 mg/kg/injection, schedule: Q01DX009 (ip), vehicle: saline): 0 of 6

Cc1c(CBr)c(=O)[nH]c2ccccc12
survivor count [4]: 0 of 6

CC/C(C[n+]1ccccc1)=N\Nc1ccc([N+](=O)[O-])cc1[N+](=O)[O-]
survivor count (dose: 80.0 mg/kg/injection, schedule: Q04DX003 (ip), vehicle: saline): 5 of 6 | survivor count [5]: 0 of 4 | survivor count [6]: 0 of 4 | survivor count [4]: 0 of 4

O=[N+]([O-])c1nncs1
survivor count (dose: 100.0 mg/kg/injection, schedule: Q04DX003 (ip), vehicle: saline sonified): 1 of 6 | survivor count (dose: 200.0 mg/kg/injection, schedule: Q04DX003 (ip), vehicle: saline sonified): 0 of 6 | survivor count (dose: 400.0 mg/kg/injection, schedule: Q04DX003 (ip), vehicle: saline sonified): 0 of 6

Br/C1=C/CCCCCC1
survivor count (dose: 300.0 mg/kg/injection, schedule: Q04DX003 (ip), vehicle: saline): 6 of 6

CCCn1cnc2c(=S)nc(N)[nH]c21
T/C (dose: 7.5 mg/kg/injection, schedule: Q01DX Z (ip), vehicle: methylcellulose (MC)): 148 % of control [5 of 6 alive] | T/C (dose: 11.0 mg/kg/injection, schedule: Q01DX Z (ip), vehicle: methylcellulose (MC)): 134 % of control [5 of 6 alive]

Cc1cc(N(CCCl)CCCl)ccc1N=Nc1ccccc1C(=O)O
T/C (dose: 6.2 mg/kg/injection, schedule: Q01DX Z (ip), vehicle: carboxymethylcellulose (CMC)): 127 % of control | T/C (dose: 12.5 mg/kg/injection, schedule: Q01DX Z (ip), vehicle: carboxymethylcellulose (CMC)): 130 % of control | T/C (dose: 20.0 mg/kg/injection, schedule: Q01DX010 (ip), vehicle: saline): 145 % of control | survivor count (dose: 40.0 mg/kg/injection, schedule: Q01DX010 (ip), vehicle: saline): 6 of 6 | survivor count (dose: 50.0 mg/kg/injection, schedule: Q01DX Z (ip), vehicle: carboxymethylcellulose (CMC)): 6 of 6 | survivor count (dose: 60.0 mg/kg/injection, schedule: Q01DX Z (ip), vehicle: carboxymethylcellulose (CMC)): 3 of 6

O=C(/C(=C/c1ccc(Cl)cc1)c1ccccc1)c1ccc(O)cc1
survivor count [5]: 4 of 4

Cc1cc(N=CN(C)C)c2ccccc2n1
survivor count (dose: 100.0 mg/kg/injection, schedule: Q01DX001 (ip), vehicle: saline with Tween-80): 1 of 6 and 3 of 6 | survivor count (dose: 200.0 mg/kg/injection, schedule: Q01DX001 (ip), vehicle: saline with Tween-80): 0 of 6 | survivor count [7]: 0 of 6 | survivor count [3]: 0 of 6

O=c1cc[nH]c2cc(Cl)ccc12
survivor count (dose: 200.0 mg/kg/injection, schedule: Q01DX009 (ip), vehicle: saline): 5 of 6

CCN(/C=C1\CCOC1=O)CC
survivor count (dose: 400.0 mg/kg/injection, schedule: Q04DX002 (ip), vehicle: saline): 0 of 3

C#CC1(O)CCCC(C)C1 (centres undefined)
survivor count [1]: 0 of 6

COc1cc([N+](=O)[O-])c2nc(/C=N/NC(N)=S)ccc2c1[N+](=O)[O-]
survivor count [5]: 6 of 6 | survivor count [4]: 6 of 6

Cc1cc2c3ccccc3ccc2[n+]2ccccc12
T/C (dose: 8.75 mg/kg/injection, schedule: Q01DX009 (ip), vehicle: saline): 126 % of control | T/C (dose: 17.5 mg/kg/injection, schedule: Q01DX009 (ip), vehicle: saline): 132 % of control | T/C (dose: 35.0 mg/kg/injection, schedule: Q01DX009 (ip), vehicle: saline): 140 % of control [5 of 6 alive] | survivor count (dose: 36.0 mg/kg/injection, schedule: Q01DX009 (ip), vehicle: acetone): 1 of 6 | survivor count (dose: 36.0 mg/kg/injection, schedule: Q01DX009 (ip), vehicle: saline): 0 of 6 | survivor count (dose: 70.0 mg/kg/injection, schedule: Q01DX009 (ip), vehicle: saline): 0 of 6 | survivor count (dose: 72.0 mg/kg/injection, schedule: Q01DX009 (ip), vehicle: saline): 0 of 6 | survivor count [6]: 1 of 4 | survivor count [4]: 0 of 4

Cc1ccc(C)c(CCO)c1
survivor count [8]: 2 of 6

CCOC1OCN(C(C)C)CC1(C)C (centres undefined)
survivor count (dose: 300.0 mg/kg/injection, schedule: Q01DX009 (ip), vehicle: saline): 0 of 6

O=C1NCCN1c1ccccn1
survivor count [2]: 0 of 6

CC(=O)Nc1ccc(OC(=O)Nc2c(C)cccc2Cl)cc1
survivor count (dose: 200.0 mg/kg/injection, schedule: Q01DX009 (ip), vehicle: Klucel (hydroxypropylcellulose) (HPC)): 3 of 6 | survivor count (dose: 400.0 mg/kg/injection, schedule: Q01DX009 (ip), vehicle: Klucel (hydroxypropylcellulose) (HPC)): 0 of 6

NC(N)=NCCc1ccccc1
survivor count [9]: 0 of 6 | survivor count [7]: 0 of 6 | survivor count [8]: 0 of 6

O=C(O)c1cc(N=Nc2ccccc2)ccc1O
survivor count (dose: 200.0 mg/kg/injection, schedule: Q01DX009 (ip), vehicle: saline with Tween-80): 3 of 6 | survivor count (dose: 400.0 mg/kg/injection, schedule: Q01DX001 (ip), vehicle: other): 1 of 6 | survivor count [2]: 6 of 6

[N-]=[N+]=NC1=CC(=O)C(c2ccccc2)=CC1=O
survivor count (dose: 400.0 mg/kg/injection, schedule: Q04DX002 (ip), vehicle: saline with Tween-80): 0 of 3

Cc1nc2c([N+](=O)[O-])cccn2n1
survivor count (dose: 200.0 mg/kg/injection, schedule: Q01DX001 (ip), vehicle: acetone): 3 of 6 | survivor count (dose: 400.0 mg/kg/injection, schedule: Q01DX001 (ip), vehicle: acetone): 0 of 6

Cc1cccc(-c2nc3cc(Cl)ccc3c(=O)o2)c1
survivor count (dose: 400.0 mg/kg/injection, schedule: Q04DX003 (ip), vehicle: Klucel (hydroxypropylcellulose) (HPC)): 0 of 6

O=[N+]([O-])c1ccc(C=Nc2cc(Cl)ccc2Cl)s1
survivor count [8]: 5 of 6

CCOC(=O)C(C(=O)OCC)c1cc(Cl)nnc1Cl
T/C (dose: 50.0 mg/kg/injection, schedule: Q04DX002 (ip), vehicle: saline): 134 % of control

CC[CH2][Ge]([CH2]CC)([CH2]CC)[O][Ge]([CH2]CC)([CH2]CC)[CH2]CC
survivor count [4]: 1 of 4

C1CCC(CC2CCNCC2)CC1
survivor count [9]: 1 of 6 | survivor count [7]: 0 of 6 | survivor count [8]: 0 of 6

Nc1ncnc2c1ncn2C1OC(CO)CC1O (centres undefined)
T/C (dose: 150.0 mg/kg/injection, schedule: Q01DX Z (ip), vehicle: carboxymethylcellulose (CMC)): 132 % of control | survivor count (dose: 600.0 mg/kg/injection, schedule: Q01DX Z (ip), vehicle: carboxymethylcellulose (CMC)): 3 of 6 | survivor count (dose: 1200.0 mg/kg/injection, schedule: Q01DX Z (ip), vehicle: carboxymethylcellulose (CMC)): 0 of 6

CCc1cccc(CC)c1NC(=O)Nc1ccc(Br)cc1
survivor count [4]: 6 of 6

CCN(CC)Cc1cc(C=O)ccc1O
survivor count (dose: 75.0 mg/kg/injection, schedule: Q01DX001 (ip), vehicle: saline): 0 of 6 | survivor count (dose: 150.0 mg/kg/injection, schedule: Q01DX001 (ip), vehicle: saline): 0 of 6 | survivor count (dose: 300.0 mg/kg/injection, schedule: Q01DX001 (ip), vehicle: saline): 0 of 6

— PubChem BioAssay AID248 (DTP/NCI, 2004)
